Assay results from PubChem BioAssay AID504834 (National Center for Advancing Translational Sciences (NCATS), 2011).
Out of some 320,000 compounds screened, about 22,000 (6.9%) were called active. The shares of active, inactive and inconclusive entries below differ from those in the screen. Calls follow the shape of the dose curve; as a rule, active = well fitted inhibition curve with a large enough effect; inconclusive = small, poorly fitted or top-dose-only effect, or another doubt; inactive = no such curve, though single readings can be large or run the other way. Potencies of inconclusive entries are doubtful fits and often do not repeat.

assay: Primary qHTS for delayed death inhibitors of the malarial parasite plastid, 96 hour incubation; conditions: P. falciparum luciferase reporter growth; series mostly up to 28.7 µM; activity change, negative = inhibition: at the top concentration
Method in brief: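 Two-generation exposure (96 h) targets delayed-death phenotype. Reporter parasites carrying integrated firefly luciferase, in red cells at 2% hematocrit and 0.05% parasitemia final, kept at 37 C, 5% CO2; luminescence loss indicates inhibition.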
% is scaled to controls: 0 for no effect and ±100 for the full control effect; potency is read from the fitted curve at half-maximal effect.

| SMILES | Potency | activity change, negative = inhibition |
| --- | --- | --- |
| Cc1nn(C)cc1CN(C)C(=O)c1sc2cccc(Cl)c2c1Cl | inconclusive: 1.04 µM [inhibitor, partial curve, poor fit] |  |
| Cc1ccc2nc(-c3ccncc3)cc(C(=O)NCc3ccccc3F)c2c1 | active: 14.7 µM |  |
| COc1ccc(C(CNC(=O)c2ccc(-c3ccccc3)cc2)N(C)C)cc1OC (stereo unspecified) | inconclusive: 13.1 µM [inhibitor, single point] |  |
| O=C(CCC(=O)Nc1ccccc1)NNC(=O)c1ccccc1Cl |  | inactive: 8.85% |
| Cc1cc(C(=O)NC(C)CCc2ccccc2)ccc1[N+](=O)[O-] (stereo unspecified) |  | inactive: -12% |
| CCc1ccccc1NC(=O)Cn1nc(C(F)(F)F)c2c1CCC2 | inconclusive: 1.04 µM [inhibitor, partial curve, poor fit] |  |
| CCN(CC)S(=O)(=O)c1ccc(C)c(NC(=O)Cc2ccc(S(=O)(=O)N3CCOCC3)s2)c1 | inconclusive: 7.38 µM [inhibitor, partial curve, poor fit] |  |
| CC(=O)c1nn(-c2cccc(Br)c2)cc1C(=O)c1ccco1 |  | inactive: -16.5% |
| Nc1cc(S(=O)(=O)c2ccc(O)c(N)c2)ccc1O |  | inactive: 3.55% |
| Cc1cc(C)n(-c2c(F)c(F)c(CO)c(F)c2F)n1 |  | inactive: 4.95% |
| Nc1n[nH]c2c1C1(CCCCC1)Cc1ccccc1-2 | inconclusive: 1.31 µM [inhibitor, partial curve, poor fit] |  |
| Cc1ccc(C(=O)Nc2ccc3cn[nH]c3c2)cc1S(=O)(=O)N1CCOCC1 | inconclusive: 11.7 µM [inhibitor, single point] |  |
| N#CCC(=O)N/N=C\c1cccc(OC/C=C/c2ccccc2)c1 | inconclusive: 9.28 µM [inhibitor, partial curve, poor fit] |  |
| Cc1ccc(Cl)cc1NC(=O)C1CCCN(c2cnccn2)C1 (stereo unspecified) | inconclusive: 11.7 µM [inhibitor, single point] |  |
| CSCCC(NC(=O)c1ccco1)C(=O)N1CCC(C(N)=O)CC1 (stereo unspecified) |  | inactive: 1.87% |
| COc1ccc(NC(=O)CN(C2CCCCC2)S(C)(=O)=O)cc1Cl |  | inactive: 32.3% |
| Cc1ccc(O)c(C=Nc2cc(C)ccc2O)c1 | inconclusive: 10.4 µM [inhibitor, single point] |  |
| COc1ccc(C(=O)NCCc2c[nH]c3ccccc23)cc1S(=O)(=O)N1CCCCC1C (stereo unspecified) | active: 13.1 µM |  |
| CCCc1nnc2n1N=C(c1ccc(OC)c(OC)c1)CS2 | inconclusive: 18.5 µM [inhibitor, single point] |  |
| Cc1cc(=O)oc2cc(Oc3ncccc3[N+](=O)[O-])ccc12 | inconclusive: 13.1 µM [inhibitor, partial curve, poor fit] |  |
| CCCCN(C(=O)c1ccc(-n2nc(C)cc2C)cc1)c1c(N)n(CCC)c(=O)[nH]c1=O |  | inactive: -8.08% |
| CCc1cccc(C)c1NC(=O)CN(C)S(=O)(=O)c1ccc(-c2ccc(=O)[nH]n2)s1 | inconclusive: 13.1 µM [inhibitor, partial curve, poor fit] |  |
| CC(C)(C)OC(=O)CNC(=O)c1[nH]cnc1C(=O)N[C@@H](Cc1ccccc1)C(=O)OC(C)(C)C | inconclusive: 18.5 µM [inhibitor, single point] |  |
| Cc1cccc(Oc2ncc(-c3ccc(Cl)cc3)cn2)c1C | inconclusive: 11.7 µM [inhibitor, single point] |  |

5 consecutive records out of the list so far:

| SMILES | Potency | activity change, negative = inhibition |
| --- | --- | --- |
| CC(=O)c1nn(-c2cccc(Br)c2)cc1C(=O)c1ccco1 |  | inactive: -16.5% |
| Nc1cc(S(=O)(=O)c2ccc(O)c(N)c2)ccc1O |  | inactive: 3.55% |
| Cc1cc(C)n(-c2c(F)c(F)c(CO)c(F)c2F)n1 |  | inactive: 4.95% |
| Nc1n[nH]c2c1C1(CCCCC1)Cc1ccccc1-2 | inconclusive: 1.31 µM [inhibitor, partial curve, poor fit] |  |
| Cc1ccc(C(=O)Nc2ccc3cn[nH]c3c2)cc1S(=O)(=O)N1CCOCC1 | inconclusive: 11.7 µM [inhibitor, single point] |  |

Next structures:

| SMILES | Potency | activity change, negative = inhibition |
| --- | --- | --- |
| O=C(c1ccc([N+](=O)[O-])cc1)N1CCSC1c1cccc(Cl)c1 (stereo unspecified) | inconclusive: 10.4 µM [inhibitor, single point] |  |
| COc1ccc(C(=O)Nc2ccc3c(c2)nc2n3CCSC2)cc1 |  | inactive: 56.4% |
| Cc1ccc(C2(C)NC(=O)N(CC(=O)N3CCN(S(=O)(=O)c4cccc(F)c4)CC3)C2=O)cc1 (stereo unspecified) | active: 11.7 µM |  |
| COc1ccc(NC(=O)c2cccnc2NCCc2ccccc2)cc1 | active: 1.47 µM |  |
| CN(c1ccccc1C(=O)O)S(=O)(=O)c1ccc2[nH]c(=O)oc2c1 |  | inactive: 6.67% |
| O=C1c2cccc(OCC(=O)N3CCCc4ccccc43)c2CCN1Cc1cccnc1 | inconclusive: 18.5 µM [inhibitor, single point] |  |
| Cc1ccc(/C=N/NC(=O)c2cccnc2)o1 | inconclusive: 10.4 µM [inhibitor, single point] |  |
| O=S(=O)(c1ccccc1)N1CCN(c2ccccc2)CC1 |  | inactive: 250% |
| c1ccc(-c2nc(NCCCn3ccnc3)c3oc4ccccc4c3n2)cc1 | active: 2.33 µM |  |
| CC(C)c1nnc(NC(=O)CCCCCN2C(=O)C3C4C=CC(C4)C3C2=O)s1 (stereo unspecified) | inconclusive: 18.5 µM [inhibitor, single point] |  |
| COc1cccc(NC(=O)C(OC(=O)c2ccccc2NS(=O)(=O)c2cccs2)c2ccccc2)c1 (stereo unspecified) | inconclusive: 18.5 µM [inhibitor, single point] |  |
| Cc1cccc(-n2cnc(C(=O)NNC(=S)Nc3ccccc3)c2)n1 | inconclusive: 0.0657 µM [inhibitor, full curve, poor fit] |  |
| CCN(CC)C(=O)c1ccc(NS(=O)(=O)c2ccc3[nH]c(=O)[nH]c3c2)cc1 | active: 8.28 µM |  |
| COc1cccc(-n2c(SCC(=O)Nc3cc(C)on3)nc3ccccc3c2=O)c1 | inconclusive: 16.5 µM [inhibitor, single point] |  |
| Cc1nc(CSc2nnc(C)s2)cs1 | inconclusive: 18.5 µM [inhibitor, single point] |  |
| O=C1C(=O)N(CC2CCCO2)C(c2ccccc2[N+](=O)[O-])/C1=C(/O)c1ccccc1 (stereo unspecified) |  | inactive: 2.96% |
| COc1ccc(/C=C/C(=O)O)cc1S(=O)(=O)N1CCCc2ccccc21 |  | inactive: -0.917% |
| N#Cc1cccc(NC(=S)Nc2ccccc2)c1 |  | inactive: 63.5% |
| O=C1CCCC2=C1C(Cc1ccccc1)C1=C(CCCC1=O)O2 |  | inactive: 23.9% |
| O=C(Nc1ccccc1)Nc1nccs1 |  | inactive: 52.7% |
| CCC(=O)Nc1nn(CC(C)C)c2nc3ccc(C)cc3cc12 | inconclusive: 1.65 µM [inhibitor, partial curve, poor fit] |  |
| COc1ccc(Cl)cc1NC(=O)Cn1nnc(C(=O)NCCc2ccc(OC)c(OC)c2)c1N | inconclusive: 2.33 µM [inhibitor, full curve] |  |
| CCN1C(=O)/C(=C2\SC(=S)N(CCCOC)C2=O)c2ccccc21 | active: 10.4 µM |  |
| CCc1nnc(NC(=O)c2ccc3c(c2)C(=O)N(C(C)(C)C)C3=O)s1 |  | inactive: 47.3% |

| SMILES | Potency | activity change, negative = inhibition |
| --- | --- | --- |
| O=C(CN1CCCCCC1)N/N=C/c1ccc(Cl)c(Cl)c1 | inconclusive: 3.7 µM [inhibitor, single point] |  |
| CC(=O)c1cccc(NC(=O)CCCN(C)S(=O)(=O)c2ccc(F)cc2)c1 | inconclusive: 18.5 µM [inhibitor, single point] |  |
| CN1C(=O)C(Cc2ccc(OCc3ccccc3)cc2)C(=O)N(C)C1=O |  | inactive: 3.65% |
| CCOC(=O)C1CCN(C/C=C/c2ccccc2)CC1 | inconclusive: 18.5 µM [inhibitor, single point] |  |
| Cc1nn(-c2ccccc2)c2c1c(C)c(CCC(=O)NCC1CCCO1)c(=O)n2C (stereo unspecified) | inconclusive: 18.5 µM [inhibitor, single point] |  |
| O=c1cc(N2CCCCC2)[nH]c(=O)n1C1CCCCC1 | inconclusive: 1.47 µM [inhibitor, partial curve, poor fit] |  |
| COc1cccc(NC(=S)N2CCN(Cc3ccccc3)CC2)c1 |  | inactive: 3.36% |
| COc1ccc(-c2cc(C(F)(F)F)c3c(n2)sc2c(O)cc(=O)[nH]c23)c(OC)c1 | inconclusive: 20.8 µM [inhibitor, partial curve, poor fit] |  |
| COc1cc(OC)c2c(-c3ccccc3)cc(=O)oc2c1C(CC(=O)N1CCN(c2ccccc2)CC1)c1ccc2c(c1)OCO2 (stereo unspecified) | inconclusive: 18.5 µM [inhibitor, single point] |  |
| Cc1cc(OCc2nc(-c3cccs3)no2)cc(C)c1Cl |  | inactive: 36.6% |
| C/C(=N\n1cnnc1)c1ccc(C#N)cc1 | inconclusive: 1.85 µM [inhibitor, partial curve, poor fit] |  |
| CCCCn1c(N)c(N(CCC(C)C)C(=O)C2CC(=O)N(c3ccc(OC)cc3OC)C2)c(=O)[nH]c1=O (stereo unspecified) |  | inactive: -14.1% |
| C=CCC(C#N)(c1ccc(OC)c(OC)c1)c1cnccn1 (stereo unspecified) | inconclusive: 18.5 µM [inhibitor, single point] |  |
| CC(C)(C)C(=O)CNS(=O)(=O)c1ccc(S(=O)(=O)NC2CCCC2)cc1 | inconclusive: 18.5 µM [inhibitor, single point] |  |
| O=C(Nc1cccc(O)c1)c1ccc(S(=O)(=O)N2CCCCCC2)cc1 | inconclusive: 13.1 µM [inhibitor, single point] |  |
| O=C(O)CCc1ccc(-c2cccs2)n1CCC(=O)O | inconclusive: 14.7 µM [inhibitor, partial curve, poor fit] |  |
| COc1ccc2c(c1)[C@@H]1[C@H](CO2)[C@H](c2ccccc2)[C@]2(C)C(=O)Nc3ccc(C)cc3C(=O)N12 | inconclusive: 11.7 µM [inhibitor, single point] |  |
| CCCC(=O)Nc1nnc(SCC(=O)N2C(C)CCCC2C)s1 (stereo unspecified) | inconclusive: 18.5 µM [inhibitor, single point] |  |
| COC1=C(Nc2ccc(OC)cc2)C(=O)c2ccccc2C1=O | inconclusive: 2.33 µM [inhibitor, full curve, poor fit] |  |
| CCC(=O)O[C@@](Cc1ccccc1)(c1ccccc1)[C@@H](C)CN(C)C |  | inactive: -1.86% [at 12.8 µM] |
| O=C(Cn1cncn1)N/N=C/c1ccncc1 |  | inactive: 0.991% |
| Cc1ccc(C)c(S(=O)(=O)N2CCN(C(=O)C3CCN(C(=O)c4ccc(F)cc4)CC3)CC2)c1 | inconclusive: 10.4 µM [inhibitor, partial curve] |  |
| Cc1nc(-c2cccc(NC(=O)c3cccs3)c2)cs1 | inconclusive: 2.33 µM [inhibitor, single point] |  |
